# Experimental data published in patent US20230303698A1.
# B1: PR002067, anti-OX40 heavy-chain antibody R1026P079E12 (antibody, human IgG1, V domains shown)
# VH: EVQLLESGGGLVQPGGSLRLSCAASGFTFSSYAMSWVRQAPGKGLEWVSAISGRGGSTFYADSVRGRFTISRDNSKNTLYLQMNSLRAEDTAMYYCVDGTTGTTDVDYWGQGTLVTVSS
# Molecular target: cynomolgus monkey OX40-His protein (cynomolgus monkey)
# Experiment: ELISA, plate coated with cynomolgus monkey OX40-His protein
binder,measurement,value
B1,binding,binds

# These are yes or no findings as the source states them, for the method shown. Binding can be weak; no strength is given.
